Data reported in the supplement of paper PMC6078165.
Values are relative to the signal before dosing, not to a vehicle control; the signal also falls without drug.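 Fibroblast labels name human fibroblasts: mostly primary ones from tissues such as uterus (C12385, HUF), lung (H6013), bone (Hs27A), adrenal (HADF) and skin (WS1), plus mammary HMF and breast cancer-associated Hs343T. The cancer cells are basal-like or mesenchymal-like triple-negative breast cancer lines. The paper calls a changed response a hit when it shifts by more than 3x the replicate standard deviation. The tissue of the other fibroblasts is not given here.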

Test system: HCC1143
Test: relative JC-1 red fluorescence (viability) vs pre-drug, coculture with fibroblast (fraction); higher = more viable cancer cells
Settings: 10 µM
Experimental: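 JC-1 labelled TNBC cells cocultured 1:1 (1,500 cells each) with CellTrace Violet stained primary or stromal fibroblasts in 384-well plates in FluoroBrite medium, treated with one of 42 anticancer drugs at 0.1, 1, 10 or 100 uM. JC-1 red fluorescence (mitochondrial integrity in cancer cells only) was read by plate reader every 8 h for 72 h. Values are normalised to each well's pre-drug value. The stock of one drug was tenfold lower, so its dose labels may be too high.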

O=NN(CCCl)C(=O)NC1CCCCC1 [Lomustine]
relative JC-1 red fluorescence
Settings | 8 h | 16 h | 24 h | 32 h | 40 h | 48 h | 56 h | 64 h | 72 h
coculture fibroblast: C12385 | 0.822 | 0.757 | 0.7 | 0.631 | 0.564 | 0.528 | 0.497 | 0.462 | 0.447
coculture fibroblast: H6013 | 0.7714 | 0.705 | 0.678 | 0.666 | 0.609 | 0.603 | 0.579 | 0.562 | 0.533
coculture fibroblast: H6019 | 0.818 | 0.753 | 0.71 | 0.657 | 0.621 | 0.593 | 0.547 | 0.5 | 0.454
coculture fibroblast: H6076 | 0.79415 | 0.788 | 0.753 | 0.7125 | 0.683 | 0.677 | 0.66 | 0.642 | 0.641
coculture fibroblast: H6231 | 0.822 | 0.778 | 0.715 | 0.664 | 0.62 | 0.6 | 0.571 | 0.539 | 0.53
coculture fibroblast: HADF | 0.746 | 0.706 | 0.68 | 0.686 | 0.603 | 0.578 | 0.556 | 0.532 | 0.532
coculture fibroblast: HCFa | 0.844 | 0.844 | 0.838 | 0.797 | 0.803 | 0.793 | 0.772 | 0.753 | 0.617
coculture fibroblast: HCPF | 0.799 | 0.784 | 0.732 | 0.679 | 0.656 | 0.627 | 0.598 | 0.573 | 0.568
coculture fibroblast: HHSteC | 0.836 | 0.794 | 0.756 | 0.721 | 0.65 | 0.617 | 0.575 | 0.554 | 0.509
coculture fibroblast: HMF | 0.766 | 0.761 | 0.696 | 0.638 | 0.6102 | 0.582 | 0.555 | 0.523 | 0.507
coculture fibroblast: HPFa | 0.8765 | 0.796 | 0.7534 | 0.6644 | 0.607 | 0.575 | 0.525 | 0.479 | 0.44
coculture fibroblast: HUF | 0.8586 | 0.745 | 0.706 | 0.637 | 0.582 | 0.559 | 0.515 | 0.488 | 0.471
coculture fibroblast: Hs5 | 0.847 | 0.834 | 0.8006 | 0.78 | 0.707 | 0.676 | 0.648 | 0.629 | 0.642
coculture fibroblast: Hs27A | 0.702 | 0.636 | 0.591 | 0.594 | 0.48 | 0.472 | 0.433 | 0.409 | 0.397
coculture fibroblast: Hs343T | 0.813 | 0.8 | 0.749 | 0.693 | 0.659 | 0.627 | 0.59 | 0.564 | 0.539
coculture fibroblast: WS1 | 0.834 | 0.765 | 0.726 | 0.665 | 0.617 | 0.593 | 0.56 | 0.525 | 0.491
